Source: article PMC11574364
Construct, isoform or probe ends are uncertain for at least one entry. For some of these results: Tags and fusion partners may be left off the protein sequences shown.

The chains behind the UniProt entries cited, without tags or fusion partners. Where a name states a change or a piece, a line headed by the entry shows the natural chain unless it says otherwise.
UniProt P15309: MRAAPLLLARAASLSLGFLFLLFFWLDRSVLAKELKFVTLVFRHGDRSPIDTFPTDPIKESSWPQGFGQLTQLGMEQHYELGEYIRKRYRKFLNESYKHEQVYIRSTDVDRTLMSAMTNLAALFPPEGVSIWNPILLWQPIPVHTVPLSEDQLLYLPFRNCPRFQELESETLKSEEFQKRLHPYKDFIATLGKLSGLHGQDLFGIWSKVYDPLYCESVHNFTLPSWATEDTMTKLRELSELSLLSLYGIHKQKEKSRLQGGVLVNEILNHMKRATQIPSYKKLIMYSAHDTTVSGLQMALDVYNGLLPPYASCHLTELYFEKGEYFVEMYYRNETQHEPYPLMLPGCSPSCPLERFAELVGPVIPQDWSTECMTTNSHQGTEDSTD
UniProt Q92993: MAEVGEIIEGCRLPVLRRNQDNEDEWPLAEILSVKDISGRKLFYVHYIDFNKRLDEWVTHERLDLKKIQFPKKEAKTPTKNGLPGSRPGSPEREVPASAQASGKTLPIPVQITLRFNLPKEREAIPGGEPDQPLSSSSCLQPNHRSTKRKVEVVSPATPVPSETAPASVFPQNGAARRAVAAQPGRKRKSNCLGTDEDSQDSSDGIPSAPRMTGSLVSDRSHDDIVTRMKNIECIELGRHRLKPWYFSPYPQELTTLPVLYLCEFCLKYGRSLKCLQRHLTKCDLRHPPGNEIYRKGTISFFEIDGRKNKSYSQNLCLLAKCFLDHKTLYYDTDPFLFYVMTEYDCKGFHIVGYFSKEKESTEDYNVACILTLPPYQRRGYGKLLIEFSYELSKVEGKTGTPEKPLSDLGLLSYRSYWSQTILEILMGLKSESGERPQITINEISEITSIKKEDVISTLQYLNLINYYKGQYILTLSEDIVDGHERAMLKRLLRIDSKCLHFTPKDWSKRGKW
UniProt Q5T7N2: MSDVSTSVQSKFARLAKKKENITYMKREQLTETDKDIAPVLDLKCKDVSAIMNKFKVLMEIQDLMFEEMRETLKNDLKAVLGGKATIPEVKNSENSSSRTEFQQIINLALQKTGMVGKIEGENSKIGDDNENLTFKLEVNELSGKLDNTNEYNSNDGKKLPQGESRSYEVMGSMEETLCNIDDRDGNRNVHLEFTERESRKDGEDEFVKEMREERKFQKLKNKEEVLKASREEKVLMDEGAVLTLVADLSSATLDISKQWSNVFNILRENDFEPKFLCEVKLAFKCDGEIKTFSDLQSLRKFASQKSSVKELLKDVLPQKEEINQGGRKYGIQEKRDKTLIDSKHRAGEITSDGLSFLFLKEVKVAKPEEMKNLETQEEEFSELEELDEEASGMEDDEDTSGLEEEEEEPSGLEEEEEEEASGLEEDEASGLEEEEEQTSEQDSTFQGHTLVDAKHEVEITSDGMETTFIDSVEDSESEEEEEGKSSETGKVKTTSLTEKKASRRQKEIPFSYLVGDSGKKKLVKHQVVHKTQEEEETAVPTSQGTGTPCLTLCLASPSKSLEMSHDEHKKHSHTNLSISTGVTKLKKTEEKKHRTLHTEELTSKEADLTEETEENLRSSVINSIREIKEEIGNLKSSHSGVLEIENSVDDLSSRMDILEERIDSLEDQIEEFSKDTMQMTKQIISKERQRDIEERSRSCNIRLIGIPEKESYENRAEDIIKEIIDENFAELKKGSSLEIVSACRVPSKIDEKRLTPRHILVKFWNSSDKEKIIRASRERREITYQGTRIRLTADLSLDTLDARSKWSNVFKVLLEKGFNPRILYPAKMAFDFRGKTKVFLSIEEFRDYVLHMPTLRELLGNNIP
UniProt Q8IV13: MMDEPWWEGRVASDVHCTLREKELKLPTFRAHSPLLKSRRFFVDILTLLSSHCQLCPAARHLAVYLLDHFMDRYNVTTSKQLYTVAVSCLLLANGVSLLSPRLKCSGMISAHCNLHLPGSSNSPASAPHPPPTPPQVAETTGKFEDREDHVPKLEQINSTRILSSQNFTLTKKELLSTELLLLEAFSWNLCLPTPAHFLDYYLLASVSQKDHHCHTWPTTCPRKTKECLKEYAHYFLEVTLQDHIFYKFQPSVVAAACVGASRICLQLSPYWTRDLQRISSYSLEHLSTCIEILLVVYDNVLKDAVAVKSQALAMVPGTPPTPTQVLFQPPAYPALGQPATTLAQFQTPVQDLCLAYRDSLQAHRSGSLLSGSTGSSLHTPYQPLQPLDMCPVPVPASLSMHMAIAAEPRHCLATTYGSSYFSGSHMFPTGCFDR
UniProt O95202: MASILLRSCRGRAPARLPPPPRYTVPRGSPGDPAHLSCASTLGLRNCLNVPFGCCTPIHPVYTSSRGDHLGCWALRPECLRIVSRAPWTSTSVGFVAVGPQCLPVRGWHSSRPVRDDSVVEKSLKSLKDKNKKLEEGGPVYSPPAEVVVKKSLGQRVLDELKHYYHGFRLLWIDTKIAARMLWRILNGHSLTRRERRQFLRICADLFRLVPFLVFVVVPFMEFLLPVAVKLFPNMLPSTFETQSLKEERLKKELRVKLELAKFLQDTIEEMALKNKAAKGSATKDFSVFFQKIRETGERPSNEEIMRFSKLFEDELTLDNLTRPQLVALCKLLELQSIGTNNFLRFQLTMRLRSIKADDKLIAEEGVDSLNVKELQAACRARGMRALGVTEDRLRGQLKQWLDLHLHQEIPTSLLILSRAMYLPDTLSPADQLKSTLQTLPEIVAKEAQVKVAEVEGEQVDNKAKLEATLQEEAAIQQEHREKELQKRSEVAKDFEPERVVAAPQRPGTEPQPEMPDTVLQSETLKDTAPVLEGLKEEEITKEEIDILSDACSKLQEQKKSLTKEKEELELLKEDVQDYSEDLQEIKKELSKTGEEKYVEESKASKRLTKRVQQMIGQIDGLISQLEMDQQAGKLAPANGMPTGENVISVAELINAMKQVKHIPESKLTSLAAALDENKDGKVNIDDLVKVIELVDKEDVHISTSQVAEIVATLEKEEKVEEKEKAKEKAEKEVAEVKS
UniProt P25787: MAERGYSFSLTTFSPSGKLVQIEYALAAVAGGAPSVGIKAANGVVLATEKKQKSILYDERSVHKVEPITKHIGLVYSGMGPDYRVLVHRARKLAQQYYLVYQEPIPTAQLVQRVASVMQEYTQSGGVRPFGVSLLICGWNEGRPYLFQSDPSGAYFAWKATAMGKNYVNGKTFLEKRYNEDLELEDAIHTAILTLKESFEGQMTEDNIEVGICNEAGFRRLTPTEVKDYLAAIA

Experiments:
Test in all cases: human ORF protein microarray
ACPP (Homo sapiens) = ACPP (Homo sapiens) (UniProt P15309); conditions: 5' phosphate; Domain array: 20 mM Tris-HCl pH 7.4, 200 mM KCl, 0.2 mM EDTA, 0.05% NP40, 2 ug/ul heparin, overnight 4 C. ORF array: PBS pH 7.0 with RNase inhibitor, 100 ng RNA, 1 h.; recombinant protein; protein details: N-terminal GST-6xHis; label: internal DY647 at G18; letters put together from the description
HTATIP (Homo sapiens) = HTATIP (Homo sapiens) (UniProt Q92993); conditions: 5' phosphate; Domain array: 20 mM Tris-HCl pH 7.4, 200 mM KCl, 0.2 mM EDTA, 0.05% NP40, 2 ug/ul heparin, overnight 4 C. ORF array: PBS pH 7.0 with RNase inhibitor, 100 ng RNA, 1 h.; recombinant protein; protein details: N-terminal GST-6xHis; label: internal DY647 at G18; letters put together from the description
L1TD1 (Homo sapiens) = L1TD1 (Homo sapiens) (UniProt Q5T7N2); conditions: 5' phosphate; Domain array: 20 mM Tris-HCl pH 7.4, 200 mM KCl, 0.2 mM EDTA, 0.05% NP40, 2 ug/ul heparin, overnight 4 C. ORF array: PBS pH 7.0 with RNase inhibitor, 100 ng RNA, 1 h.; recombinant protein; protein details: N-terminal GST-6xHis; label: internal DY647 at G18; letters put together from the description
CCNJL (Homo sapiens) = CCNJL (Homo sapiens) (UniProt Q8IV13); conditions: 5' phosphate; Domain array: 20 mM Tris-HCl pH 7.4, 200 mM KCl, 0.2 mM EDTA, 0.05% NP40, 2 ug/ul heparin, overnight 4 C. ORF array: PBS pH 7.0 with RNase inhibitor, 100 ng RNA, 1 h.; recombinant protein; protein details: N-terminal GST-6xHis; label: internal DY647 at G18; letters put together from the description
TXNL4B (Homo sapiens) = molecular target: T1, TXNL4B (Homo sapiens) (UniProt Q9NX01); conditions: 5' phosphate; Domain array: 20 mM Tris-HCl pH 7.4, 200 mM KCl, 0.2 mM EDTA, 0.05% NP40, 2 ug/ul heparin, overnight 4 C. ORF array: PBS pH 7.0 with RNase inhibitor, 100 ng RNA, 1 h.; recombinant protein; protein details: N-terminal GST-6xHis; label: internal DY647 at G18; letters put together from the description
T1 sequence (looked up, limits assumed): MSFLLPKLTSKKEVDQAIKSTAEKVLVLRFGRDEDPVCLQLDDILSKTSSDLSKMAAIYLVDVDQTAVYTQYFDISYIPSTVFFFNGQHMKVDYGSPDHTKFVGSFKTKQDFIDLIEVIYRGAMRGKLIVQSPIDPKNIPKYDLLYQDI

ZNF18 (Homo sapiens) = molecular target: T2, ZNF18 (Homo sapiens) (UniProt P17022); conditions: 5' phosphate; Domain array: 20 mM Tris-HCl pH 7.4, 200 mM KCl, 0.2 mM EDTA, 0.05% NP40, 2 ug/ul heparin, overnight 4 C. ORF array: PBS pH 7.0 with RNase inhibitor, 100 ng RNA, 1 h.; recombinant protein; protein details: N-terminal GST-6xHis; label: internal DY647 at G18; letters put together from the description
T2 sequence (looked up, limits assumed): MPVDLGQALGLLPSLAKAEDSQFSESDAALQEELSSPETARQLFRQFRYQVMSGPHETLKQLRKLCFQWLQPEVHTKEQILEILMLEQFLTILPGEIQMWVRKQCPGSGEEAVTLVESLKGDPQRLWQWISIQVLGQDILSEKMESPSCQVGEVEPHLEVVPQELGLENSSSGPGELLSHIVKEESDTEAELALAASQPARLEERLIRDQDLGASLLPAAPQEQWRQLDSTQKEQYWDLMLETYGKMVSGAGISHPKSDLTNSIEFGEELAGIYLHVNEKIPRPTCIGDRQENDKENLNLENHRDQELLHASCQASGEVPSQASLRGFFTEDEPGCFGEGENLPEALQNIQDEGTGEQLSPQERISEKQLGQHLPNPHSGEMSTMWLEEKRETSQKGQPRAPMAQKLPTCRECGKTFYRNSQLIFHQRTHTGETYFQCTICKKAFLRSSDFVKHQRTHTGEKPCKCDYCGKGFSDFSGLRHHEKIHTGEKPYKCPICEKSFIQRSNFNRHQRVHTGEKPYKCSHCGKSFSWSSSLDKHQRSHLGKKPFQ

ACO2 (Homo sapiens) = molecular target: T3, ACO2 (Homo sapiens) (UniProt Q99798); conditions: 5' phosphate; amino-C6 U at position 18; Domain array: 20 mM Tris-HCl pH 7.4, 200 mM KCl, 0.2 mM EDTA, 0.05% NP40, 2 ug/ul heparin, overnight 4 C. ORF array: PBS pH 7.0 with RNase inhibitor, 100 ng RNA, 1 h.; recombinant protein; protein details: N-terminal GST-6xHis; label: internal Cy5 or DY647
T3 sequence (looked up, limits assumed): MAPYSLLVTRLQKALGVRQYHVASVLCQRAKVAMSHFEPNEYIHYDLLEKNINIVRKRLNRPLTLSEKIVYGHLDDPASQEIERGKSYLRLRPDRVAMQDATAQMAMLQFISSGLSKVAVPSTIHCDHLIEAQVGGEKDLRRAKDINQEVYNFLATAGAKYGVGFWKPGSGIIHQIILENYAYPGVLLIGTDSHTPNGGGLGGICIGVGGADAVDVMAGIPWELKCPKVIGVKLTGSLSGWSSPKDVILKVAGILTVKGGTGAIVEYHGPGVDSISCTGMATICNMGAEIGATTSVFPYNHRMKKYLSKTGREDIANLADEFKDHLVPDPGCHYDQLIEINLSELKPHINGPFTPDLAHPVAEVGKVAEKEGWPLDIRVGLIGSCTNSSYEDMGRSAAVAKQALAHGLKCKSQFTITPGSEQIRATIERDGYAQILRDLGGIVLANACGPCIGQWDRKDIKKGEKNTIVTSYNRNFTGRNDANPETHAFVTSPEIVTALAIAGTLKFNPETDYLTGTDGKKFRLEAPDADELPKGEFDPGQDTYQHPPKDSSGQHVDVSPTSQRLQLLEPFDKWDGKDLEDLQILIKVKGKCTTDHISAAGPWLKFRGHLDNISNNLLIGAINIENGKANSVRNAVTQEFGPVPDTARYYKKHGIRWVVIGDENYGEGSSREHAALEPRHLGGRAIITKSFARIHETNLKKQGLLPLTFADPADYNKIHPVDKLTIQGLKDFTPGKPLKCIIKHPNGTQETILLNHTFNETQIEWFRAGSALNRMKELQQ

LETM1 (Homo sapiens) = LETM1 (Homo sapiens) (UniProt O95202); conditions: 5' phosphate; amino-C6 U at position 18; Domain array: 20 mM Tris-HCl pH 7.4, 200 mM KCl, 0.2 mM EDTA, 0.05% NP40, 2 ug/ul heparin, overnight 4 C. ORF array: PBS pH 7.0 with RNase inhibitor, 100 ng RNA, 1 h.; recombinant protein; protein details: N-terminal GST-6xHis; label: internal Cy5 or DY647
PSMA2 (Homo sapiens) = PSMA2 (Homo sapiens) (UniProt P25787); conditions: 5' phosphate; amino-C6 U at position 18; Domain array: 20 mM Tris-HCl pH 7.4, 200 mM KCl, 0.2 mM EDTA, 0.05% NP40, 2 ug/ul heparin, overnight 4 C. ORF array: PBS pH 7.0 with RNase inhibitor, 100 ng RNA, 1 h.; recombinant protein; protein details: N-terminal GST-6xHis; label: internal Cy5 or DY647
THG1L (Homo sapiens) = molecular target: T4, THG1L (Homo sapiens) (UniProt Q9NWX6); conditions: 5' phosphate; amino-C6 U at position 18; Domain array: 20 mM Tris-HCl pH 7.4, 200 mM KCl, 0.2 mM EDTA, 0.05% NP40, 2 ug/ul heparin, overnight 4 C. ORF array: PBS pH 7.0 with RNase inhibitor, 100 ng RNA, 1 h.; recombinant protein; protein details: N-terminal GST-6xHis; label: internal Cy5 or DY647
T4 sequence (looked up, limits assumed): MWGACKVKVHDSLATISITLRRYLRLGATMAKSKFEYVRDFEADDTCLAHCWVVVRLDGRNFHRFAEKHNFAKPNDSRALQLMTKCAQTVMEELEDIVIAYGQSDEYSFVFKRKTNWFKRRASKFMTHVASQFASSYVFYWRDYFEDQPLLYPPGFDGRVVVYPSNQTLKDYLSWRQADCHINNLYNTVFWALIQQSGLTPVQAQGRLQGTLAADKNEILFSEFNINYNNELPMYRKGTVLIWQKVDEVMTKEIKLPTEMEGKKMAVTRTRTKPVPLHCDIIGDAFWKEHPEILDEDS

Measured: binding result

CAGUGCAAUGAUGAAAGGGCAU [miR-130b (internal labeling)]
binds: ACPP (Homo sapiens) | HTATIP (Homo sapiens) | L1TD1 (Homo sapiens)

UAGCUUAUCAGACUGAUGUUGA [miR-21 (internal labeling)]
binds: CCNJL (Homo sapiens) | TXNL4B (Homo sapiens) | ZNF18 (Homo sapiens)

UGAGGUAGUAGGUUGUGUGGUU [let-7b (internal labeling)]
binds: ACO2 (Homo sapiens) | LETM1 (Homo sapiens) | PSMA2 (Homo sapiens) | THG1L (Homo sapiens)
